From PubChem BioAssay AID504467 (National Center for Advancing Translational Sciences (NCATS), 2011)
About 7,700 (2.3%) of roughly 330,000 compounds were called active. This list was built around the results that the source calls inconclusive (neither active nor inactive); the mix of calls is not that of the screen. Calls come from the whole dose curve; as a rule, active = well fitted inhibition curve with a large enough effect; inconclusive = small, poorly fitted or top-dose-only effect, or effect the other way; inactive = flat fitted curve, though single readings scatter. Potencies beside an inconclusive call are fits to weak or partial responses and may not hold up.

Experiment: qHTS screen for small molecules that inhibit ELG1-dependent DNA repair in human embryonic kidney (HEK293T) cells expressing luciferase-tagged ELG1; note: nearly all actives have a fitted effect of over 55% in size
Conditions: HEK293T ELG1-luciferase reporter, luminescence, 16 h, DNA damage induced by 5-fluorouridine; activity change, negative = inhibition: at 46.1 µM (top of the series)
Procedure, shortened: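 Reporter activity after DNA damage by 5-fluorouridine is monitored. Compound-treated cells incubate 16 hr at 37 °C, then ONE-Glo is added for 30 min before luminescence reading.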
% is set by controls: 0 for no effect and ±100 for the full control effect; potency is the fitted concentration of half-maximal effect.

| SMILES | activity change, negative = inhibition | Potency |
| --- | --- | --- |
| COC(=O)COc1ccc(C2NC(=O)NC(c3ccccc3)=C2C(C)=O)cc1Br (stereo not drawn) | inactive: -25.7% |  |
| CCOC(=O)c1ccc(S(=O)(=O)Nc2ccc(N3CCOCC3)cc2)cc1 | inactive: 4.24% |  |
| c1ccc(-c2ccc(Oc3cc(N4CCOCC4)nc(-c4ccccc4)n3)cc2)cc1 | inactive: -5.81% |  |
| CCOC(=O)c1ccc(CC(=O)c2ccc(O)cc2O)o1 |  | inconclusive: 8.2 µM [inhibitor, partial curve] |
| Cn1c(C(=O)N2CCCC(C(=O)N3CCN(C(=O)c4ccco4)CC3)C2)cc2sccc21 (stereo not drawn) |  | inconclusive: 20.6 µM [inhibitor, single point] |
| CN1c2ccccc2C(C)(C)C12CC(CCl)=NO2 (stereo not drawn) | inactive: -11.6% |  |
| CC1CCN(S(=O)(=O)c2cccc(C(=O)NCC3CCCO3)c2)CC1 (stereo not drawn) | inactive: -5.53% |  |
| COc1ccc(/C=C/C(=O)Oc2cccc(/C=N/NC(=O)c3cccc(F)c3)c2)cc1 |  | inconclusive: 20.6 µM [activator, partial curve] |
| CCc1c(C)nc2ncnn2c1N1CCC(C(=O)Nc2ccccc2)CC1 |  | active: 20.6 µM |
| COc1cccc(NC2SC(=O)N(c3ccccc3)C2=O)c1 (stereo not drawn) |  | inconclusive: 6.51 µM [activator, partial curve] |
| C/C(=N\O)c1ccc(Cl)cc1Cl | inactive: 1.02% |  |
| Cc1oc(-c2ccc(Cl)cc2)nc1CSCC(=O)NCCCN1CCOCC1 |  | inconclusive: 18.4 µM [inhibitor, partial curve] |
| O=C(COc1ccc2c(c1)OCO2)NCc1cccs1 |  | inconclusive: 16.4 µM [activator, single point] |
| COC(=O)[C@H](C)N(Cc1ccc(Cl)c(Cl)c1)S(=O)(=O)CCN1CCN(c2ccccc2)CC1 |  | inconclusive: 18.3 µM [inhibitor, partial curve] |
| CCN1CCc2c(C#N)c(N3CCOCC3)nc(NCc3ccccc3)c2C1 |  | inconclusive: 25.9 µM [inhibitor, single point] |
| Cc1cc(C)c2nc(NC(=O)[C@@H](NC(=O)c3cccc(S(=O)(=O)N4CCOCC4)c3)C(C)C)sc2c1 | inactive: 0.905% |  |
| CC1c2ccsc2CCN1S(=O)(=O)c1cccs1 (stereo not drawn) |  | inconclusive: 32.6 µM [inhibitor, partial curve, poor fit] |
| O=C(/C=C/c1ccc([N+](=O)[O-])s1)N1CCCC1 |  | active: 14.6 µM |
| Cc1ccc2nc(SC(C(=O)c3ccccc3)c3ccccc3)nc(C)c2c1 (stereo not drawn) | inactive: -8.83% |  |
| CCOC(=O)Cc1csc(-n2sc3ccccc3c2=O)n1 |  | inconclusive: 18.4 µM [activator, partial curve] |
| Cc1ccc(C(=O)N/N=C\c2ccc(-c3ccc([N+](=O)[O-])cc3)o2)cn1 | inactive: 25.5% |  |
| COc1ccc(CNC(=O)CNC(=O)c2cccs2)c(OC)c1 |  | inconclusive: 11.6 µM [activator, single point] |
| CCCc1cc(NC(=O)COC(=O)c2nccnc2N)n(-c2ccccc2)n1 | inactive: 19.8% |  |
| CC(=O)N1N=C(c2ccc(Cl)cc2)CC1c1ccco1 (stereo not drawn) |  | inconclusive: 29.1 µM [inhibitor, single point] |

Some of the entries above, set out differently.
CC1c2ccsc2CCN1S(=O)(=O)c1cccs1 (stereo not drawn)
  Potency: inconclusive: 32.6 µM [inhibitor, partial curve, poor fit]
O=C(/C=C/c1ccc([N+](=O)[O-])s1)N1CCCC1
  Potency: active: 14.6 µM
Cc1ccc2nc(SC(C(=O)c3ccccc3)c3ccccc3)nc(C)c2c1 (stereo not drawn)
  activity change, negative = inhibition: inactive: -8.83%

Continued:

| SMILES | activity change, negative = inhibition | Potency |
| --- | --- | --- |
| Cc1nc2c(O)cccc2cc1CO | inactive: 1.09% |  |
| CC1Cc2nc(SCC(=O)c3ccccc3)n(Cc3ccccc3)c(=O)c2S1 (stereo not drawn) | inactive: 5.33% |  |
| CCOC(=O)CNc1c(-c2ccccc2)nc2ccc(Cl)cn12 |  | inconclusive: 14.1 µM [activator, partial curve, poor fit] |
| COc1ccc(S(=O)(=O)Nc2nc3ccccc3nc2NCC2CCCO2)cc1 (stereo not drawn) |  | inconclusive: 16.4 µM [inhibitor, single point] |
| Cc1ccc(/C=N/Nc2nc3ccccc3s2)o1 |  | inconclusive: 0.731 µM [activator, partial curve] |
| Cc1cccc(N2CCN(C(=O)c3ccoc3C)CC2)c1C | inactive: -4.88% |  |
| Cc1ccc(NCC(=O)N/N=C\c2ccc([N+](=O)[O-])o2)cc1 |  | inconclusive: 18.4 µM [inhibitor, partial curve, poor fit] |
| CCCCSc1nc2ccc(Nc3nc(N4CCOCC4)nc(N4CCOCC4)n3)cc2s1 |  | active: 16.4 µM |
| COc1ccc(S(=O)(=O)N(C)C)cc1NC(=O)Cc1cccs1 | inactive: 8.69% |  |
| OCc1ncc(-c2ccccc2)s1 |  | inconclusive: 23.1 µM [activator, partial curve] |
| CCOC(=O)c1sc2c(c1C)c(=O)n(CCO)c(=O)n2Cc1ccccc1 |  | inconclusive: 20.6 µM [inhibitor, single point] |
| Cc1cc(C(=O)NN)c(C)o1 | inactive: 3.2% |  |
| CCNC(=S)N/N=C/c1c(Cl)cccc1Cl | inactive: -5.16% |  |
| COc1cccc(CNS(=O)(=O)c2ccc3c(c2)N(C)CCO3)c1 | inactive: -1.02% |  |
| CC1CCN(C(=O)C2CCN(S(=O)(=O)c3ccc4c(c3)CC(C)N4C(=O)C3CC3)CC2)CC1 (stereo not drawn) | inactive: -24.8% |  |
| Cc1ccc(S(=O)(=O)c2c(N)n(CCC(C)C)c3nc4ccccc4nc23)cc1 |  | inconclusive: 25.9 µM [inhibitor, single point] |
| CC1CC(N(C(=O)c2ccccc2Cl)c2ccccc2)c2ccccc2N1 (stereo not drawn) |  | inconclusive: 25.9 µM [inhibitor, partial curve, poor fit] |
| COc1ccc(OCc2nc(C#N)c(NCCCn3ccnc3)o2)cc1 | inactive: -8.77% |  |
| C/C(N)=C(/C#N)C(=O)CSc1ccccc1F |  | inconclusive: 16.4 µM [activator, partial curve] |
| CN(C)S(=O)(=O)c1ccc(C(=O)N2CCN=C2SCc2cccnc2)cc1 |  | inconclusive: 23.1 µM [inhibitor, single point] |
| c1cncc(-c2nc(NCC3CCCO3)c3ccccc3n2)c1 (stereo not drawn) |  | active: 23.1 µM |
| C[C@H]1CN([C@@H](C)CO)C(=O)c2cccc(NC(=O)C3CC3)c2O[C@H]1CN(C)Cc1ccncc1 |  | inconclusive: 18.3 µM [activator, partial curve, poor fit] |
| O=S(=O)(Nc1nc2ccccc2nc1NCC1CCCO1)c1ccc(F)cc1 (stereo not drawn) |  | inconclusive: 29.1 µM [inhibitor, single point] |
| COCCNC(=O)c1ccc2c(=O)n(Cc3ccco3)c(SCC(=O)Nc3ccc(OC)cc3OC)nc2c1 |  | inconclusive: 5.17 µM [inhibitor, partial curve, poor fit] |
